The values that follow come from patent publication US12077555B2, “STAT degraders and uses thereof” (Kymera Therapeutics, Inc., priority 2019, dated 2024).

The chains behind the UniProt entries cited, without tags or fusion partners.
UniProt P40763, whole entry: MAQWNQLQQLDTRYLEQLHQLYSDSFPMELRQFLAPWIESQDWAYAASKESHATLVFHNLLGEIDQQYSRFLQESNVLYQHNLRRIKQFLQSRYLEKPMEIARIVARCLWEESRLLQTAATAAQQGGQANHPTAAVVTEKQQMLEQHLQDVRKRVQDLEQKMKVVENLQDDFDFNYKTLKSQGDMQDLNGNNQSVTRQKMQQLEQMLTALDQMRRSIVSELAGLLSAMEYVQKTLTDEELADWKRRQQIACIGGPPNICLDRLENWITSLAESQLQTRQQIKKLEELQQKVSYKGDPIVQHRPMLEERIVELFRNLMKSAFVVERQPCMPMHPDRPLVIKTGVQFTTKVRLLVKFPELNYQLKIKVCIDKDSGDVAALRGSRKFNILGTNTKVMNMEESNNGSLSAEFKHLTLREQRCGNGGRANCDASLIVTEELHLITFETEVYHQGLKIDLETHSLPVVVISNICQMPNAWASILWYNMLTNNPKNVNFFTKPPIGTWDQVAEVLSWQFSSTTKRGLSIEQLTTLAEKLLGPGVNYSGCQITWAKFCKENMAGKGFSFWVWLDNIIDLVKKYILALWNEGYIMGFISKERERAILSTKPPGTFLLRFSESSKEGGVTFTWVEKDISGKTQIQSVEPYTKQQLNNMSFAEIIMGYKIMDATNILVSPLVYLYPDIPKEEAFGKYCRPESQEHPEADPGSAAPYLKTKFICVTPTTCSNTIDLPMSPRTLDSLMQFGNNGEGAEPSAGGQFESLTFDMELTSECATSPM

The structures appear in SMILES notation. Like-named read-outs stand apart in the source and are kept apart here. The structures given here were assigned with low confidence; some may be wrong. Where only a bound is given, the exact number is not on record here.

Broadly, the IC50 is the point on the concentration scale where inhibition reaches its midpoint.

For assay [1], the target named is T1, STAT3 (Homo sapiens, UniProt P40763). In words: STAT3 MSD assay. Format: cell-based. The method, then:
100 nl of compounds were added into the intermediate plate with Echo (Labcyte 550) from source plate containing a 3-fold serial dilution from top concentration of 1 mM. Cells were seeded into 96-well plates (4×10^4 cells/well/100 ul media), mixed well, and incubated for 24 hours. The media was aspirated from the cultures and 60 μL pre-chilled PIPA lysis buffer (Boston BioProducts BP-115D) with protease/phosphatase inhibitor (Roche 05892791001/Roche 04906837001) was added into the well to lyze the cells for 20 minutes at 4° C. The MSD plate (L15XA) was coated with 2 ug/ml capture antibody (ab119352) in PBS and incubated at 4° C. overnight. The next day, the plate was washed three times with TBST (CST #99975), 150 μL/well. MSD plates were blocked with 150 μL blocking buffer per well and shaken for 1 hr at RT and 600 rpm. The blocking buffer was 3% Blocker A (MSD, R93BA-4) in TBST. The MSD plate was washed three times with 150 μL/well of TBST and 70 μL cell lysate was added into the well and shaken for 1 hour at RT and 600 rpm. The MSD plate was washed three times with 150 μL/well of TBST and added 25 μL/well of detection antibody (ab68153) to a final concentration of 1 μg/ml diluted in 1% blocking buffer and shaken for 1 hour at RT and 600 rpm. MSD plate was washed three times with 150 μL/well of TBST and added 25 μL/well of SULFO-TAG anti-rabbit antibody (MSD, R32AB-1) to a final concentration of 1 μg/mL diluted in 1% blocking buffer and shaken for 1 hour at RT and 600 rpm. The MSD plate washed three times with 150 μL/well of TBST and added 150 μL/well of 2×MSD reading buffer diluted from 4× (MSD, R92TC-2) with water. Lastly the MSD instrument was read.

The target in assay [2] is T1, STAT3. In words: Quantitation of STAT3 degradation in A549 cells by Western blot. Format: cell-based. The method, then:
Degradation of total cellular STAT3 protein in A549 was quantitatively measured using SDS-PAGE and Western blot analysis. A549 cells (5×10^5 cells/well, 2 mL) were seeded into 6-well plates and were incubated in the incubator under 5% CO2 overnight to reach ˜80% confluency. The next day, the culture medium was changed with 1 ml fresh media. Then, 1 mL of media containing 2× compound solution was added into the well to make the final concentration of 30 μM, 10 μM, 3 μM, 1 μM, 0.3 μM and 0 μM (DMSO). The media was thoroughly mixed and incubated for 24 hours at 37° C. under 5% CO2. Then, the culture media was removed from the assay plates and the cells were washed with ice-cold PBS twice. To prepare cell lysates, 200 ul pre-chilled RIPA lysis buffer (Boston BioProducts BP-115D) with protease/phosphatase inhibitor (Roche 05892791001/Roche 04906837001) was added directly into the well to lyse the cells for 20 minutes on ice. The cell lysates were then transferred to centrifuge tubes. Insoluble part of lysates was removed by centrifuging the lysates at 13000 rpm for 20 minutes. The supernatant was then collected and mixed with 5× loading buffer (Beyotime Bio P0015) to make the final samples for SDS-PAGE analysis. The samples were heated at 100° C. for 10 minutes and cool to room temperature before centrifuging at 13000 rpm for 20 minutes. To analyze the samples by SDS-PAGE, 10 ul samples were loaded onto SDS-PAGE gel (Novex, WG1403BOX) and the SDS-PAGE gel was run for 20 minutes at 80 V, then at 120 V for 1.5 hours. The SDS-PAGE gel was then transferred to nitrocellulose membrane using the wet-transfer method at 250 mA for 1.5 hours. The membrane was then blocked with LI-COR blocking buffer (LI-COR, 927-50000) for 1 hour and was probed with primary antibody (mouse anti-STAT3 (124H6) (CST #91395) 1:2000 or mouse anti-beta-Actin (8H10D10) (CST #3700) 1:10000) at 4° C. overnight. The membrane was then washed three times with TBST buffer and probed with secondary antibody (anti-mouse IgG (LI-COR, 926-68070), 1:5000) for 1 hour at room temperature. The membrane was then scanned on a LI-COR Odyssey instrument and was quantified using Image Studio Version 5.2. Concentration at 50% degradation (DC50) was calculated by fitting dose dependent degradation data using a sigmoidal equation using GraphPad Prism Version 8.0.

Another assay concerns SR-786 cells. In words: CellTiter-Glo cell viability, SR-786. The note with it: for CTG (% Max inh), Day 4: SR-786, ALCL (ALK+). The protocol: (§1) Compound-mediated viability effect on MOLM-16 and SU-HDL-1 cells was quantitatively determined using the CellTiter-Glo® Luminescent Cell Viability Assay kit from Promega (Catalog number G7572) following manufacturer's recommended procedures.
(§2) Day 0: 60 nL of compounds/DMSO were stamped to the cell plate as on the recommended platemap. Compound precipitation was observed. Cells were centrifuged at 800 rpm for 5 min, suspended with culture medium, and counted with Countess (Invitrogen). The cell density was adjusted to the recommend concentration. 30 μL of cell solution (2000 cells/well) was added to the assay plate according to the platemap. 30 μL of media was added to column 2 and column 23 as on the platemap. The final concentration of the compounds except for the reference compound Paclitaxel was from 10 μM, 3-fold dilution and 11 dose (Paclitaxel started at 500 nM). The final DMSO concentration was 0.2%. The assay plate was incubated at 37° C., 5% CO2 for 4 days.
Day 4: The assay plate was equilibrated to RT for ˜10 minutes. Compound precipitation was observed (96h). To determine cell viability, 30 μL of CellTiter Glo reagent was added to each well and the assay plate was centrifuged at 1000 rpm for 30 second, incubated at room temperature for 10 min, and analyzed by detecting the luminescence using a multimode plate reader (EnVision 2105, PerkinElmer). The data was then analyzed by software Prism 7.0 from GraphPad and the dose response curves were fit using a three-parameter logistic equation to calculate EC50.
A general note: Cellular ATP, detected with luciferase, serves as a proxy for viable cell number.

The next assay deals with MOLM-16 cells. In words: CellTiter-Glo cell viability, MOLM-16. The note with it: MOLM-16, FIG. 5B. The protocol: as §1
as §2, with “The final DMSO concentration was 0.2%. The assay plate was incubated at 37° C., 5% CO2 for 4 days.” left out
Day 4: The assay plate was equilibrated to RT for ˜10 minutes. […] To determine cell viability, 30 μL of CellTiter Glo reagent was added to each well and the assay plate was centrifuged at 1000 rpm for 30 second, incubated at room temperature for 10 min, and analyzed by detecting the luminescence using a multimode plate reader (EnVision 2105, PerkinElmer). The data was then analyzed by software Prism 7.0 from GraphPad and the dose response curves were fit using a three-parameter logistic equation to calculate EC50.

The subject of the next assay is DEL cells. In words: CellTiter-Glo cell viability, DEL. Particulars: for CTG (% Max inh), Day 4: ALCL (ALK+).

`Cn1c(=O)n(C2CCC(=O)NC2=O)c2ccc(CCCCCCC(=O)N3CC[C@H]4CC[C@@H](C(=O)N[C@@H](CCC(N)=O)C(=O)NC(c5ccccc5)c5ccccc5)N4C(=O)[C@@H](NC(=O)c4cc5cc(C(=O)P(=O)(O)O)ccc5[nH]4)C3)cc21` (stereo partly drawn): on STAT3 [1] (SU-DHL-1, 24 hr), the “STAT3 levels, MSD DC90 (μM) at 24 hr” value worked out at 0.15 µM. Further, the DC50 on STAT3 [1] (read-out: MSD DC50, MOLM-16 cells) is 4 nM; at STAT3 [1] (read-out: MSD DC50, SU-HDL-1 cells) it was 28 nM; at STAT3 [2] (read-out: A549 DC50, 24 hours, tested up to 30 μM or 10 μM) it was less than 30000 nM. In addition, the entries for the “CTG (% Max inh), Day 4” value in the assay on SR-786 cells and in the assay on DEL cells (Day 4) were “(75) %” and “(>95) %”, respectively. Further, the 50% inhibitory concentration (IC50) was found to be 3.8 µM in the assay with SR-786 cells (read-out: CTG, IC50 μM, Day 4, SR-786, ALCL (ALK+)) and 0.11 µM in the assay with DEL cells (read-out: CTG, IC50 μM, Day 4, ALCL (ALK+), Day 4). Further, the cell proliferation entry with MOLM-16 cells is on record as “inhibits”.
For the molecule `Cc1ncsc1-c1ccc([C@H](C)NC(=O)[C@@H]2C[C@@H](O)CN2C(=O)[C@@H](NC(=O)CCCCc2ccc(CO[C@H](C)[C@H](CCC(N)=O)NC(=O)[C@@H]3Cc4cccc5c4N3C(=O)[C@@H](NC(=O)c3cc4cc(C(=O)P(=O)(O)O)ccc4[nH]3)CC5)cc2)C(C)(C)C)cc1` [Compound I-227], the “STAT3 MSD % Amax” value is 97% on STAT3 [1] (DEL, 24 hr, tested form: diammonium); 99% at STAT3 [1] (KARPAS-299, 24 hr, tested form: diammonium); 95% on STAT3 [1] (KI-JK, 24 hr, tested form: diammonium); 99% on STAT3 [1] (SR-786, 24 hr, tested form: diammonium); greater than 95% on STAT3 [1] (SU-DHL-1, 24 hr, tested form: diammonium); 95% at STAT3 [1] (SUP-M2, 24 hr, tested form: diammonium). Besides, the DC50 on STAT3 [1] (read-out: STAT3 MSD DC50, DEL, 24 hr, tested form: diammonium) worked out at 28 nM; on STAT3 [1] (read-out: STAT3 MSD DC50, KARPAS-299, 24 hr, tested form: diammonium) it was 13 nM; on STAT3 [1] (read-out: STAT3 MSD DC50, KI-JK, 24 hr, tested form: diammonium) it was 39 nM; at STAT3 [1] (read-out: STAT3 MSD DC50, SR-786, 24 hr, tested form: diammonium), 9 nM; on STAT3 [1] (read-out: STAT3 MSD DC50, SU-DHL-1, 24 hr, tested form: diammonium), 15 nM; at STAT3 [1] (read-out: STAT3 MSD DC50, SUP-M2, 24 hr, tested form: diammonium), 62 nM. In addition, the DC50 on STAT3 [2] (read-out: A549 DC50, 24 hours, tested up to 30 μM or 10 μM, tested form: diammonium) is less than 30000 nM. Further, the “CTG (% Max inh), Day 4” value is listed as “(85) %” with SR-786 cells (tested form: diammonium) and “(>95) %” in the assay on DEL cells (Day 4, tested form: diammonium). For the same molecule, the concentration for half-maximal inhibition (IC50) is 0.25 µM in the assay on SR-786 cells (read-out: CTG, IC50 μM, Day 4, SR-786, ALCL (ALK+), tested form: diammonium) and 0.038 µM in the assay with DEL cells (read-out: CTG, IC50 μM, Day 4, ALCL (ALK+), Day 4, tested form: diammonium). For the same molecule, the cell proliferation entry in the assay on DEL cells (FIG. 16, tested form: diammonium) is given as “inhibit”.
